Some of the results follow.
Legend:
Assay in all cases: glycan array binding signal (z-score within array); higher = stronger binding
Settings in all cases: glycan notation: IUPAC condensed, linker removed
[1] = molecular target: Neu5Ac(a2-6)GlcNAc(b1-4)GlcNAc
Method in brief: (§1)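 Glycan array data came from 3228 arrays in the Consortium for Functional Glycomics database, and only arrays with an available protein sequence were kept. Glycan names were put into IUPAC-condensed notation, and columns mapping to the same glycan were averaged. The binding signal is a within-array Z-score, averaged across arrays of one protein sequence run at different concentrations or buffers and across linkers. A negative Z-score can be read as non-binding.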

[2] = molecular target: Neu5Ac(a2-6)GlcNAc(b1-4)GlcNAc(b1-4)GlcNAc
Method in brief: as §1

Neu5Ac(a2-8)Neu5Ac = molecular target: Neu5Ac(a2-8)Neu5Ac
Method in brief: as §1

[3] = molecular target: Neu5Ac(a2-8)Neu5Ac(a2-3)Gal(b1-3)GalNAc(b1-4)[Neu5Ac(a2-3)]Gal(b1-4)Glc
Method in brief: as §1

[4] = molecular target: Neu5Ac(a2-8)Neu5Ac(a2-3)Gal(b1-3)GalNAc(b1-4)[Neu5Ac(a2-8)Neu5Ac(a2-3)]Gal(b1-4)Glc
Method in brief: as §1

[5] = molecular target: Neu5Ac(a2-8)Neu5Ac(a2-3)Gal(b1-4)Glc
Method in brief: as §1

[6] = molecular target: Neu5Ac(a2-8)Neu5Ac(a2-3)Gal(b1-4)GlcNAc
Method in brief: as §1

[7] = molecular target: Neu5Ac(a2-8)Neu5Ac(a2-3)[Gal(b1-3)GalNAc(b1-4)]Gal(b1-4)Glc
Method in brief: as §1

[8] = molecular target: Neu5Ac(a2-8)Neu5Ac(a2-3)[GalNAc(b1-4)]Gal(b1-4)Glc
Method in brief: as §1

[9] = molecular target: Neu5Ac(a2-8)Neu5Ac(a2-8)Neu5Ac
Method in brief: as §1

[10] = molecular target: Neu5Ac(a2-8)Neu5Ac(a2-8)Neu5Ac(a2-3)Gal(b1-4)Glc
Method in brief: as §1

[11] = molecular target: Neu5Ac(a2-8)Neu5Ac(a2-8)Neu5Ac(a2-3)[Gal(b1-3)GalNAc(b1-4)]Gal(b1-4)Glc
Method in brief: as §1

[12] = molecular target: Neu5Ac(a2-8)Neu5Ac(a2-8)Neu5Ac(a2-3)[GalNAc(b1-4)]Gal(b1-4)Glc
Method in brief: as §1

[13] = molecular target: Neu5Ac(a2-8)Neu5Ac(a2-8)Neu5Ac(a2-8)Neu5Ac(a2-3)[GalNAc(b1-4)]Gal(b1-4)Glc
Method in brief: as §1

[14] = molecular target: Neu5Ac(a2-8)Neu5Gc(a2-3)Gal(b1-4)GlcNAc
Method in brief: as §1

[15] = molecular target: Neu5Ac(b2-6)Gal(b1-4)GlcNAc
Method in brief: as §1

Neu5Ac(b2-6)GalNAc = molecular target: Neu5Ac(b2-6)GalNAc
Method in brief: as §1

[16] = molecular target: Neu5Ac9Ac(a2-3)Gal(b1-3)GlcNAc
Method in brief: as §1

[17] = molecular target: Neu5Ac9Ac(a2-3)Gal(b1-4)GlcNAc
Method in brief: as §1

[18] = molecular target: Neu5Ac9Ac(a2-6)Gal(b1-4)GlcNAc
Method in brief: as §1

[19] = molecular target: Neu5Gc(a2-3)Gal(b1-3)GlcNAc
Method in brief: as §1

[20] = molecular target: Neu5Gc(a2-3)Gal(b1-3)[Fuc(a1-4)]GlcNAc
Method in brief: as §1

Neu5Gc(a2-3)Gal(b1-4)Glc = molecular target: Neu5Gc(a2-3)Gal(b1-4)Glc
Method in brief: as §1

[21] = molecular target: Neu5Gc(a2-3)Gal(b1-4)GlcNAc
Method in brief: as §1

[22] = molecular target: Neu5Gc(a2-3)Gal(b1-4)GlcNAc(b1-3)Gal(b1-4)GlcNAc(b1-2)Man(a1-3)[Neu5Gc(a2-3)Gal(b1-4)GlcNAc(b1-3)Gal(b1-4)GlcNAc(b1-2)Man(a1-6)]Man(b1-4)GlcNAc(b1-4)GlcNAc
Method in brief: as §1

[23] = molecular target: Neu5Gc(a2-3)Gal(b1-4)[Fuc(a1-3)]GlcNAc
Method in brief: as §1

[24] = molecular target: Neu5Gc(a2-6)Gal(b1-4)GlcNAc
Method in brief: as §1

Neu5Gc(a2-6)GalNAc = molecular target: Neu5Gc(a2-6)GalNAc
Method in brief: as §1

[25] = molecular target: Neu5Gc(a2-8)Neu5Ac(a2-3)Gal(b1-4)GlcNAc
Method in brief: as §1

[26] = molecular target: Neu5Gc(a2-8)Neu5Gc(a2-3)Gal(b1-4)GlcNAc
Method in brief: as §1

[27] = molecular target: Neu5Gc(a2-8)Neu5Gc(a2-3)Gal(b1-4)GlcNAc(b1-3)Gal(b1-4)GlcNAc
Method in brief: as §1

[28] = molecular target: Neu5Gc(a2-8)Neu5Gc(a2-6)Gal(b1-4)GlcNAc
Method in brief: as §1

[29] = molecular target: Neu5Gc(b2-6)Gal(b1-4)GlcNAc
Method in brief: as §1

B1: pTFF2 (Sus scrofa), P01359 (protein)
chain: KPAACRCSRQDPKNRVNCGFPGITSDQCFTSGCCFDSQVPGVPWCFKPLPAQESEECVMEVSARKNCGYPGISPEDCAARNCCFSDTIPEVPWCFFPMSVEACHY
Q: How did the “glycan array binding signal (z-score)” value [1] turn out when B1 was run?
A: 0.213

Q: And the “glycan array binding signal (z-score)” value [2]?
A: -1.29

Q: What about the “glycan array binding signal (z-score)” value (Neu5Ac(a2-8)Neu5Ac) of the same binder?
A: -0.697

Q: And the “glycan array binding signal (z-score)” value [3]?
A: 0.514

Q: And the “glycan array binding signal (z-score)” value [4]?
A: 0.439

Q: And the “glycan array binding signal (z-score)” value [5]?
A: 0.005

Q: What about the “glycan array binding signal (z-score)” value [6] of the same binder?
A: -0.515

Q: What about the “glycan array binding signal (z-score)” value [7] of the same binder?
A: 0.016

Q: And the “glycan array binding signal (z-score)” value [8]?
A: 0.295

Q: And the “glycan array binding signal (z-score)” value [9]?
A: 0.284

Q: What about the “glycan array binding signal (z-score)” value [10] of the same binder?
A: -0.275

Q: And the “glycan array binding signal (z-score)” value [11]?
A: 0.311

Q: What about the “glycan array binding signal (z-score)” value [12] of the same binder?
A: 1

Q: What about the “glycan array binding signal (z-score)” value [13] of the same binder?
A: 0.692

Q: What about the “glycan array binding signal (z-score)” value [14] of the same binder?
A: -0.765

Q: What about the “glycan array binding signal (z-score)” value [15] of the same binder?
A: -0.982

Q: And the “glycan array binding signal (z-score)” value (Neu5Ac(b2-6)GalNAc)?
A: 0.27

Q: What about the “glycan array binding signal (z-score)” value [16] of the same binder?
A: -1.34

Q: And the “glycan array binding signal (z-score)” value [17]?
A: -0.575

Q: What about the “glycan array binding signal (z-score)” value [18] of the same binder?
A: -0.421

Q: What about the “glycan array binding signal (z-score)” value [19] of the same binder?
A: -0.752

Q: What about the “glycan array binding signal (z-score)” value [20] of the same binder?
A: 0.024

Q: What about the “glycan array binding signal (z-score)” value (Neu5Gc(a2-3)Gal(b1-4)Glc) of the same binder?
A: -1.17

Q: And the “glycan array binding signal (z-score)” value [21]?
A: 0.017

Q: What about the “glycan array binding signal (z-score)” value [22] of the same binder?
A: 0.62

Q: What about the “glycan array binding signal (z-score)” value [23] of the same binder?
A: 0.658

Q: What about the “glycan array binding signal (z-score)” value [24] of the same binder?
A: 0.067

Q: And the “glycan array binding signal (z-score)” value (Neu5Gc(a2-6)GalNAc)?
A: 0.043

Q: And the “glycan array binding signal (z-score)” value [25]?
A: -0.7

Q: What about the “glycan array binding signal (z-score)” value [26] of the same binder?
A: -0.206

Q: And the “glycan array binding signal (z-score)” value [27]?
A: 1.25

Q: What about the “glycan array binding signal (z-score)” value [28] of the same binder?
A: -0.188

Q: And the “glycan array binding signal (z-score)” value [29]?
A: -0.591

Source: the supplement of paper PMC8728848
